The list shows a part of the results.
Assays:
Test in all cases: log2 fold change, soluble protein after heating vs DMSO (PISA); higher = thermal stabilisation; K562 cells, 10 uM, 30 min; active = over 0.2 and 3.5 SD of the protein, either way, in both replicates (recomputed)
[1] = compound: CS(=O)(=O)c1ccc(-c2cnc(N)c(C(=O)Nc3ccccc3)n2)cc1
Method in brief: (§1)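 Quantification of soluble protein used TMTpro 16plex LC-MS/MS, with channel sums equalised. Samples were the supernatant after 21,000xg for 90 min of pooled aliquots from K562 cells (2×10^6 cells/mL) treated with 10 μM compound for 30 min, heated for 3 min over 48°C-58°C, and extracted in PBS with 0.5% NP-40 at 4°C. Values, from duplicates, describe thermal stability against control samples on a log2 fold-change scale.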

Chains of the proteins cited; added tags and fusions are not shown. Lines headed by an entry give the natural chain unless they say otherwise; changes in a name come on top.
UniProt Q01518, whole entry, looked up: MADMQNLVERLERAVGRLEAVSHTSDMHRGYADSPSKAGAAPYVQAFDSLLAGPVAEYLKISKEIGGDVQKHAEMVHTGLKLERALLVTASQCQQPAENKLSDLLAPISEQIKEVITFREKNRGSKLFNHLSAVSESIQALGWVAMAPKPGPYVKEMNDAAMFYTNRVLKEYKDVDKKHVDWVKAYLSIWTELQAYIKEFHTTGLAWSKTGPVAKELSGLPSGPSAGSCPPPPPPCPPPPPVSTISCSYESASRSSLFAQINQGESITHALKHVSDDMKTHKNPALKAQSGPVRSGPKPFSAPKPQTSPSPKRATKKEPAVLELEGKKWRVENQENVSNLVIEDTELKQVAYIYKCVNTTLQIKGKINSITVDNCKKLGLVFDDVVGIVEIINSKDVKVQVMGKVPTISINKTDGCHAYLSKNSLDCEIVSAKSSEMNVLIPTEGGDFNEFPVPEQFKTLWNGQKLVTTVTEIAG
UniProt Q9Y6W3: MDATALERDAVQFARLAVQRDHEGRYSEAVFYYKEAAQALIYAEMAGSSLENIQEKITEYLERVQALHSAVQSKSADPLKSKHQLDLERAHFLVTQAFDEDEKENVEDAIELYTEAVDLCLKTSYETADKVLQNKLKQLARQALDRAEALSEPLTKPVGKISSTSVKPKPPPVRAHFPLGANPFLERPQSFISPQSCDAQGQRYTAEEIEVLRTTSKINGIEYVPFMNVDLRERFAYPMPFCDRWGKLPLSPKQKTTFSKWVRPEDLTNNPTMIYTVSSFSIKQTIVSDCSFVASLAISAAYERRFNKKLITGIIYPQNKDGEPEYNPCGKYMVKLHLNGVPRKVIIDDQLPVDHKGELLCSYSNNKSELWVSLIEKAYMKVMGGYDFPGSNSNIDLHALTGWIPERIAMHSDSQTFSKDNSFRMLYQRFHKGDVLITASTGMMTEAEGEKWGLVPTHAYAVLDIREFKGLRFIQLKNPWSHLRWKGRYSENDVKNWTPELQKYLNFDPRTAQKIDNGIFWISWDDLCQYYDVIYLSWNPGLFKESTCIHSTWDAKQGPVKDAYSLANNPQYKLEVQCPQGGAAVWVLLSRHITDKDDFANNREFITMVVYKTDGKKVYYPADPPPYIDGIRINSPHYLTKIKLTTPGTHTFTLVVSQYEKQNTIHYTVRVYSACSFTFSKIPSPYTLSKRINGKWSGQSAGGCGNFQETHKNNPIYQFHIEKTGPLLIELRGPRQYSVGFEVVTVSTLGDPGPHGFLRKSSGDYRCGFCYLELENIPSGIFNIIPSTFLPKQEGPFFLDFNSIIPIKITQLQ
UniProt Q8N5I9: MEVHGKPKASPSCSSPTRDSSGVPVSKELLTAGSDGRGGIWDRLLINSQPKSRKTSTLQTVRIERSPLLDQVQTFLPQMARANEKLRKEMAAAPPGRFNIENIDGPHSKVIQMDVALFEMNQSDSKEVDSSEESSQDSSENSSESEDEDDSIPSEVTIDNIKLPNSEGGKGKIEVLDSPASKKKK
UniProt Q8WVQ1: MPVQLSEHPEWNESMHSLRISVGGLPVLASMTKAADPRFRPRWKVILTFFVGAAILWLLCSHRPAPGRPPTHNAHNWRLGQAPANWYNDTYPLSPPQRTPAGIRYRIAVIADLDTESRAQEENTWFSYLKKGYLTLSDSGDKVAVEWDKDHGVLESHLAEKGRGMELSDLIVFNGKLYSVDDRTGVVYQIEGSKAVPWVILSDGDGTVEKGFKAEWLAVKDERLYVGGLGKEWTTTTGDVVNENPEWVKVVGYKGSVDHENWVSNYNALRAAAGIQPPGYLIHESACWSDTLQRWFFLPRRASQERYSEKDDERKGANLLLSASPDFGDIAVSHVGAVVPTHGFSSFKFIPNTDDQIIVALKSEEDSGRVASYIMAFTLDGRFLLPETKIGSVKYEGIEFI
UniProt Q49AR2: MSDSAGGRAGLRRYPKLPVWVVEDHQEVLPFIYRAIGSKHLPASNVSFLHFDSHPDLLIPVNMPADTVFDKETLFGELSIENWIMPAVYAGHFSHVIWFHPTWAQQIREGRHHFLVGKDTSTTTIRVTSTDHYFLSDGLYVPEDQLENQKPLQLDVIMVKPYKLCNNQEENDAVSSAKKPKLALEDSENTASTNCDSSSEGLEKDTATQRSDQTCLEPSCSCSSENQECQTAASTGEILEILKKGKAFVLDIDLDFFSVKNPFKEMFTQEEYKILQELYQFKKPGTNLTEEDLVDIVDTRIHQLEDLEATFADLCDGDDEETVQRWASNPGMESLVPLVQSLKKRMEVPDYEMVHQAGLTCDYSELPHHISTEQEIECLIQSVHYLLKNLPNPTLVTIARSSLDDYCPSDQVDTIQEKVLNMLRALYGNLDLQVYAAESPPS
UniProt Q96EU7: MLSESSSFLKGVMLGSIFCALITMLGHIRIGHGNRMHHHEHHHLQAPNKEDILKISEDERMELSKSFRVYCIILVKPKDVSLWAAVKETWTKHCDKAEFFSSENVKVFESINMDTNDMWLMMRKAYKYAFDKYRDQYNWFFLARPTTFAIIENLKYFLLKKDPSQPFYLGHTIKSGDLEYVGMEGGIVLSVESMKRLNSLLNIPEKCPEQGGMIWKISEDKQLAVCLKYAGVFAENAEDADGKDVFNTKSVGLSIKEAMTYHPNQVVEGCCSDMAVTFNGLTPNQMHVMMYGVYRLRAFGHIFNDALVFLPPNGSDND
UniProt Q86VP6: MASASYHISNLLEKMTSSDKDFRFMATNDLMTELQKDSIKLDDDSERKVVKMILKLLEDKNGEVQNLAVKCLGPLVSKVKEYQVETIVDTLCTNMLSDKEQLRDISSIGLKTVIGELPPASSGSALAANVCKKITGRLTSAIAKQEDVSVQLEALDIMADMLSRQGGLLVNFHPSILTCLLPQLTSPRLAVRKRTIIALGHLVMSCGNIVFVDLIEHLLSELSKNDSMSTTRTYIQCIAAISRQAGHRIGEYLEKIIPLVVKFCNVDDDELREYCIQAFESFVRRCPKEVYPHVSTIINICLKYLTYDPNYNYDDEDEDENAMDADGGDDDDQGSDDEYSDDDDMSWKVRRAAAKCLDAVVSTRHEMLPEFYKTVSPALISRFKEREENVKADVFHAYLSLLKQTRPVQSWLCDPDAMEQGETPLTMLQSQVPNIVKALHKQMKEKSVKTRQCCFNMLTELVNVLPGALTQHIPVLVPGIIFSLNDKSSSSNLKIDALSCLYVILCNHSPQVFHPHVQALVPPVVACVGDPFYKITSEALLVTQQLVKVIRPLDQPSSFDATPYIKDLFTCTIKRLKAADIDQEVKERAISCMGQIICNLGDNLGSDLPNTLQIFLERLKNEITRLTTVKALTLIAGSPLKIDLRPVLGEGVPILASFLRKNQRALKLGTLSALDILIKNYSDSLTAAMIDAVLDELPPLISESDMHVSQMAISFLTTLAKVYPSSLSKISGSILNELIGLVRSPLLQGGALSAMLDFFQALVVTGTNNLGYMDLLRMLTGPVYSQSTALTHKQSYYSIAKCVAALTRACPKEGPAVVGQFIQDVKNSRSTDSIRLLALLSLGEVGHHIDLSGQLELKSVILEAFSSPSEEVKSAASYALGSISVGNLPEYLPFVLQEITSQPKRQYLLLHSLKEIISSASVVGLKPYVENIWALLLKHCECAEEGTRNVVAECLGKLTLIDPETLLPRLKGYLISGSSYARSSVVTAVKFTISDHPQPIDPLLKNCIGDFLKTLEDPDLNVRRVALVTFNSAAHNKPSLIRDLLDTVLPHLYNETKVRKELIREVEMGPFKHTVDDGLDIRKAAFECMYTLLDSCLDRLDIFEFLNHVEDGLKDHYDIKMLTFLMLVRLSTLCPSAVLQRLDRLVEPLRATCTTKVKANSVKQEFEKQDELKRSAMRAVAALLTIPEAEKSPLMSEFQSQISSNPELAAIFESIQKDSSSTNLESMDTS
UniProt Q8N8R5: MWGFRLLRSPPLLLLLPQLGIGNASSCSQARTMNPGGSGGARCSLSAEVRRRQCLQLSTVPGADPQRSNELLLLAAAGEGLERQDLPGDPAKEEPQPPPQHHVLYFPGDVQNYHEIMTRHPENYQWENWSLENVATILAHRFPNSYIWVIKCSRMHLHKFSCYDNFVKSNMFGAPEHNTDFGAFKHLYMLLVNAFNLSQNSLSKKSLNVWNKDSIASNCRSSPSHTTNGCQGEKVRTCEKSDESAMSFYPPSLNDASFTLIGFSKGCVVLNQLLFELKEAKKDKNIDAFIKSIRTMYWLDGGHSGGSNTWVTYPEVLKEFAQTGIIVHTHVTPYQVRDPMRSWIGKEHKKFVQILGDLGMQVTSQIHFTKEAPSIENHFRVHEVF
UniProt Q6ZSJ8: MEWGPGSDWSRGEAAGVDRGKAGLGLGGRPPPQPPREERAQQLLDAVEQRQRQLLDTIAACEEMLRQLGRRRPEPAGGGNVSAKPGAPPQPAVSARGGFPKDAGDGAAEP
UniProt P41223: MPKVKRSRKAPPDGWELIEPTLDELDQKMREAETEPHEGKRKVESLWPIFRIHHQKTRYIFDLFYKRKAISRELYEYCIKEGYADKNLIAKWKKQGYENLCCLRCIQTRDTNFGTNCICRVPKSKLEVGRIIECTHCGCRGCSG
UniProt P35613: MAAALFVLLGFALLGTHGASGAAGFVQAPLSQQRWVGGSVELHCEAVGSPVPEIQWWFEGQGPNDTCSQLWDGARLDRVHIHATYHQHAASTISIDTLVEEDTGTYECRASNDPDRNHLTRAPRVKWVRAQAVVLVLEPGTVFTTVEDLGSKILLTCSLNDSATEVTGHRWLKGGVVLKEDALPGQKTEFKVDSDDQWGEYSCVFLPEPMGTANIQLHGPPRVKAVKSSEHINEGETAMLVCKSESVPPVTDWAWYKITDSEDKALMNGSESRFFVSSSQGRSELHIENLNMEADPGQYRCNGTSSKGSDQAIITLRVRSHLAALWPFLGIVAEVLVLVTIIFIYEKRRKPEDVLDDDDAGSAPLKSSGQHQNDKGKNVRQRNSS
UniProt Q9H7E9: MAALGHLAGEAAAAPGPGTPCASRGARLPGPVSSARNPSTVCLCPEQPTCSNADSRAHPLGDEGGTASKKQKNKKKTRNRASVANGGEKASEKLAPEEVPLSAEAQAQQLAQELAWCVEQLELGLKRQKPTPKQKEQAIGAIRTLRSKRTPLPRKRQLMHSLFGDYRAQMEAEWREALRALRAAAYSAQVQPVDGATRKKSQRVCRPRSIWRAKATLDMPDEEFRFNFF
UniProt P47756, whole entry, looked up: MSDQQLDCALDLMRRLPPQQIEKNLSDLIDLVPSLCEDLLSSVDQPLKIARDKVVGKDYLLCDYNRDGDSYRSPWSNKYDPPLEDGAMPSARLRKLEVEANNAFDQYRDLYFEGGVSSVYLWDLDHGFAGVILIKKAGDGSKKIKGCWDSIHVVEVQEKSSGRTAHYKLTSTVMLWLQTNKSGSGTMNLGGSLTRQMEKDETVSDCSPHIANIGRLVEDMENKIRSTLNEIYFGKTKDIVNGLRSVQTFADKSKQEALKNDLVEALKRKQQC
UniProt P40121: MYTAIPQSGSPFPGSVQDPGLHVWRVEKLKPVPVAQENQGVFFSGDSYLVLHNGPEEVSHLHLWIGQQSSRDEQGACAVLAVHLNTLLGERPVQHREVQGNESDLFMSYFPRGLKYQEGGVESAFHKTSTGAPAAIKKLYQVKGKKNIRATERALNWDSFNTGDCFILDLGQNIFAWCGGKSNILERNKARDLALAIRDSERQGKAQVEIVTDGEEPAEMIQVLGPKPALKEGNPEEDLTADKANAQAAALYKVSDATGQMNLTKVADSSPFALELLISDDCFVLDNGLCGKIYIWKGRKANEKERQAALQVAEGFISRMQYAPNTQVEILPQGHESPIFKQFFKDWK
UniProt Q9UFG5: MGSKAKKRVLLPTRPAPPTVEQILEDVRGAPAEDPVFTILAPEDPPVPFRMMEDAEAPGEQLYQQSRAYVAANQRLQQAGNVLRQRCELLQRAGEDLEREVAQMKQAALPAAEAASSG
UniProt O43852: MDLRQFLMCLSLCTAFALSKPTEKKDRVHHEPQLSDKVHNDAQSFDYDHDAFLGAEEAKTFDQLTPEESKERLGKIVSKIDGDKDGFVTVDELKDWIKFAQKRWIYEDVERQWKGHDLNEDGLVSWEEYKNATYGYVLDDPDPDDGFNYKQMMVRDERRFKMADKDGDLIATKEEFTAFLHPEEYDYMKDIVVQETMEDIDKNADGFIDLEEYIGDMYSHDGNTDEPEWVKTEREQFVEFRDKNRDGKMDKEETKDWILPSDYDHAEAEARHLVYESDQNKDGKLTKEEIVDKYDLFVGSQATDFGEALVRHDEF
UniProt Q9NS00: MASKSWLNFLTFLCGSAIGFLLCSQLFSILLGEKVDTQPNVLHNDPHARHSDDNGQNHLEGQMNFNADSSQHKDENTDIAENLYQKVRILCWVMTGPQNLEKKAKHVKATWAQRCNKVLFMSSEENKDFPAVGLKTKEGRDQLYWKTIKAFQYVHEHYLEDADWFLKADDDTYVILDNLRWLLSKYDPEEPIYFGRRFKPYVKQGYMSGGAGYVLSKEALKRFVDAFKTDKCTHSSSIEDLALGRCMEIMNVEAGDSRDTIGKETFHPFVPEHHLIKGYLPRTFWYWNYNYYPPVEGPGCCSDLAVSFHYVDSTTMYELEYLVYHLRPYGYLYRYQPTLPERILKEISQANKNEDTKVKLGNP

crizotinib = compound: C[C@@H](Oc1cc(-c2cnn(C3CCNCC3)c2)cnc1N)c1c(Cl)ccc(F)c1Cl [crizotinib]
Method in brief: as §1

[2] = compound: C[C@@H]1COCCN1C2=NC(=NC(=C2)C3(CC3)S(=O)(=O)C)C4=C5C=CNC5=CC=C4
Method in brief: as §1

[3] = compound: C[C@H](C1=CC=C(C=C1)C(=O)NC2=C3C=CNC3=NC=C2)N
Method in brief: as §1

duvelisib = compound: C[C@H](Nc1ncnc2nc[nH]c12)c1cc2cccc(Cl)c2c(=O)n1-c1ccccc1 [duvelisib]
Method in brief: as §1

gandotinib = compound: Cc1cc(Nc2cc(CN3CCOCC3)c3nc(C)c(Cc4ccc(Cl)cc4F)n3n2)n[nH]1 [gandotinib]
Method in brief: as §1

tozasertib = compound: Cc1cc(Nc2cc(N3CCN(C)CC3)nc(Sc3ccc(NC(=O)C4CC4)cc3)n2)n[nH]1 [tozasertib]
Method in brief: as §1

[4] = compound: Cc1cc(SCc2sc(-c3ccc(C(F)(F)F)cc3)nc2C)ccc1OCC(=O)O
Method in brief: as §1

doramapimod = compound: Cc1ccc(-n2nc(C(C)(C)C)cc2NC(=O)Nc2ccc(OCCN3CCOCC3)c3ccccc23)cc1 [doramapimod]
Method in brief: as §1

ispinesib = compound: Cc1ccc(C(=O)N(CCCN)[C@@H](c2nc3cc(Cl)ccc3c(=O)n2Cc2ccccc2)C(C)C)cc1 [ispinesib]
Method in brief: as §1

Measured: log2 fold change

CAP1 (UniProt Q01518)
inactive: [1] 0.063 | crizotinib 0.054 | [2] 0.126 | [3] -0.081 | duvelisib -0.008 | gandotinib -0.07 | tozasertib 0.008 | [4] 0.003 | doramapimod -0.06 | ispinesib 0.096

C1orf174 (UniProt Q8IYL3)
inactive: [1] 0 | crizotinib 0.128 | [2] -0.27 | [3] 0.037 | duvelisib 0.008 | gandotinib 0.119 | tozasertib -0.05 | [4] -0.118 | doramapimod -0.043 | ispinesib -0.08

CAPN7 (UniProt Q9Y6W3)
inactive: [1] 0.017 | crizotinib -0.091 | [2] 0.031 | [3] -0.006 | duvelisib 0.021 | gandotinib -0.021 | tozasertib -0.01 | [4] 0.044 | doramapimod 0.006 | ispinesib -0.055

CAPNS1 (UniProt P04632)
inactive: [1] 0.013 | crizotinib 0.043 | [2] 0.056 | [3] -0.056 | duvelisib 0.04 | gandotinib 0.018 | tozasertib -0.011 | [4] -0.008 | doramapimod -0.022 | ispinesib 0.024

C12orf45 (UniProt Q8N5I9)
inactive: [1] 0 | crizotinib 0.051 | [2] 0.05 | [3] -0.075 | duvelisib -0.023 | gandotinib 0.037 | tozasertib 0.003 | [4] -0.075 | doramapimod 0.011 | ispinesib 0.043

C2CD2 (UniProt Q9Y426)
inactive: [1] 0.119 | crizotinib -0.03 | [2] 0.128 | [3] 0.138 | duvelisib 0.008 | gandotinib -0.048 | tozasertib -0.005 | [4] -0.07 | doramapimod -0.01 | ispinesib -0.102

CANT1 (UniProt Q8WVQ1)
inactive: [1] -0.01 | crizotinib -0.014 | [2] -0.001 | [3] 0.029 | duvelisib 0.036 | gandotinib -0.062 | tozasertib 0.005 | [4] -0.039 | doramapimod -0.037 | ispinesib -0.005

C5orf22 (UniProt Q49AR2)
inactive: [1] 0.019 | crizotinib -0.029 | [2] 0.008 | [3] 0.005 | duvelisib 0.027 | gandotinib 0.005 | tozasertib -0.037 | [4] 0.032 | doramapimod 0.016 | ispinesib -0.019

C1GALT1C1 (UniProt Q96EU7)
inactive: [1] 0.016 | crizotinib -0.146 | [2] 0.028 | [3] -0.007 | duvelisib 0.04 | gandotinib -0.099 | tozasertib -0.027 | [4] -0.077 | doramapimod 0.05 | ispinesib 0.017

C1orf131 isoform 5 (UniProt Q8NDD1)
inactive: [1] 0.008 | crizotinib 0.025 | [2] -0.141 | [3] 0.336 | duvelisib -0.106 | gandotinib 0.154 | tozasertib -0.087 | [4] 0.059 | doramapimod 0.159 | ispinesib -0.174

CAND1 (UniProt Q86VP6)
inactive: [1] 0.009 | crizotinib 0.026 | [2] 0.038 | [3] -0.069 | duvelisib 0.013 | gandotinib -0.02 | tozasertib -0.009 | [4] -0.031 | doramapimod -0.069 | ispinesib 0.056

CALM2 (UniProt P0DP24)
inactive: [1] 0.001 | crizotinib 0.006 | [2] 0.001 | [3] -0.086 | duvelisib 0.139 | gandotinib -0.002 | tozasertib -0.017 | [4] -0.068 | doramapimod -0.031 | ispinesib 0.048

C2orf69 (UniProt Q8N8R5)
inactive: [1] -0.121 | crizotinib 0.043 | [2] 0.035 | [3] -0.003 | duvelisib -0.011 | gandotinib -0.025 | tozasertib 0.015 | [4] 0.019 | doramapimod 0.012 | ispinesib 0.134

C1orf122 (UniProt Q6ZSJ8)
inactive: [1] 0.037 | crizotinib 0.109 | [2] 0.013 | [3] -0.286 | duvelisib 0.179 | gandotinib -0.001 | tozasertib -0.005 | [4] -0.088 | doramapimod -0.012 | ispinesib 0.082

C11orf98 (UniProt E9PRG8)
inactive: [1] -0.065 | crizotinib 0 | [2] -0.475 | [3] 0.434 | duvelisib -0.203 | gandotinib 0.295 | tozasertib 0.017 | [4] -0.045 | doramapimod 0.127 | ispinesib -0.081

BUD31 (UniProt P41223)
inactive: [1] -0.037 | crizotinib -0.016 | [2] 0.012 | [3] -0.097 | duvelisib 0.02 | gandotinib 0.027 | tozasertib 0.027 | [4] 0.018 | doramapimod -0.046 | ispinesib -0.049

C2CD5 isoform 4 (UniProt Q86YS7)
inactive: [1] 0.025 | crizotinib -0.127 | [2] 0.052 | [3] -0.023 | duvelisib 0.016 | gandotinib 0.017 | tozasertib -0.012 | [4] 0.077 | doramapimod -0.02 | ispinesib -0.018

BSG (UniProt P35613)
inactive: [1] -0.002 | crizotinib 0.138 | [2] 0.056 | [3] 0.08 | duvelisib 0.107 | gandotinib -0.068 | tozasertib -0.058 | [4] -0.019 | doramapimod 0.004 | ispinesib 0.111

C8orf33 isoform 2 (UniProt Q9H7E9)
inactive: [1] -0.025 | crizotinib 0.218 | [2] -0.58 | [3] 0.703 | duvelisib -0.211 | gandotinib 0.466 | tozasertib 0.13 | [4] -0.012 | doramapimod 0.17 | ispinesib -0.101

CAPZB isoform 2 (UniProt P47756)
inactive: [1] 0.029 | crizotinib -0.007 | [2] 0.038 | [3] -0.114 | duvelisib -0.025 | gandotinib -0.01 | tozasertib -0.017 | [4] -0.059 | doramapimod -0.057 | ispinesib 0.041

CAPG (UniProt P40121)
inactive: [1] -0.038 | crizotinib 0.039 | [2] 0.017 | [3] -0.074 | duvelisib 0.015 | gandotinib -0.044 | tozasertib 0.064 | [4] 0.04 | doramapimod 0.008 | ispinesib 0.058

C19orf25 (UniProt Q9UFG5)
inactive: [1] 0.059 | crizotinib 0.07 | [2] 0.124 | [3] -0.083 | duvelisib 0.092 | gandotinib 0.074 | tozasertib 0.051 | [4] 0 | doramapimod -0.06 | ispinesib 0.175

Quoted at random: 2 records from the list.
BSG (UniProt P35613)
inactive: [1] -0.002 | crizotinib 0.138 | [2] 0.056 | [3] 0.08 | duvelisib 0.107 | gandotinib -0.068 | tozasertib -0.058 | [4] -0.019 | doramapimod 0.004 | ispinesib 0.111

C8orf33 isoform 2 (UniProt Q9H7E9)
inactive: [1] -0.025 | crizotinib 0.218 | [2] -0.58 | [3] 0.703 | duvelisib -0.211 | gandotinib 0.466 | tozasertib 0.13 | [4] -0.012 | doramapimod 0.17 | ispinesib -0.101

Additional entries

C1orf52 (UniProt Q8N6N3)
inactive: [1] -0.01 | crizotinib 0.048 | [2] -0.018 | [3] 0.03 | duvelisib 0.041 | gandotinib 0.049 | tozasertib -0.055 | [4] -0.075 | doramapimod -0.023 | ispinesib -0.013

CALU isoform 3 (UniProt O43852)
inactive: [1] 0.014 | crizotinib 0.04 | [2] -0.009 | [3] -0.009 | duvelisib 0.018 | gandotinib 0.006 | tozasertib -0.002 | [4] -0.05 | doramapimod -0.007 | ispinesib 0

BTF3L4 (UniProt Q96K17)
inactive: [1] 0.008 | crizotinib -0.054 | [2] 0.001 | [3] -0.064 | duvelisib 0.037 | gandotinib 0.01 | tozasertib 0.003 | [4] -0.037 | doramapimod -0.003 | ispinesib 0.037

C3 (UniProt P01024)
inactive: [1] -0.119 | crizotinib 0.123 | [2] 0.018 | [3] 0.148 | duvelisib -0.133 | gandotinib -0.121 | tozasertib -0.049 | [4] -0.122 | doramapimod 0.032 | ispinesib 0.007

CANX isoform 2 (UniProt P27824)
inactive: [1] 0.02 | crizotinib 0.029 | [2] -0.081 | [3] 0.129 | duvelisib -0.075 | gandotinib 0.098 | tozasertib 0.008 | [4] 0.005 | doramapimod 0.003 | ispinesib -0.036

C1GALT1 (UniProt Q9NS00)
inactive: [1] 0.093 | crizotinib -0.149 | [2] 0.089 | [3] 0.005 | duvelisib 0.028 | gandotinib -0.02 | tozasertib -0.014 | [4] -0.043 | doramapimod 0.059 | ispinesib -0.063

C20orf27 isoform 2 (UniProt Q9GZN8)
inactive: [1] 0.066 | crizotinib -0.066 | [2] 0.236 | [3] -0.028 | duvelisib 0.125 | gandotinib -0.089 | tozasertib -0.067 | [4] 0.081 | doramapimod -0.008 | ispinesib 0.118
